Laboratory results as given in paper PMC11427100.

Amino acid sequences for entries named in this document (tags omitted).
UniProt Q6R891: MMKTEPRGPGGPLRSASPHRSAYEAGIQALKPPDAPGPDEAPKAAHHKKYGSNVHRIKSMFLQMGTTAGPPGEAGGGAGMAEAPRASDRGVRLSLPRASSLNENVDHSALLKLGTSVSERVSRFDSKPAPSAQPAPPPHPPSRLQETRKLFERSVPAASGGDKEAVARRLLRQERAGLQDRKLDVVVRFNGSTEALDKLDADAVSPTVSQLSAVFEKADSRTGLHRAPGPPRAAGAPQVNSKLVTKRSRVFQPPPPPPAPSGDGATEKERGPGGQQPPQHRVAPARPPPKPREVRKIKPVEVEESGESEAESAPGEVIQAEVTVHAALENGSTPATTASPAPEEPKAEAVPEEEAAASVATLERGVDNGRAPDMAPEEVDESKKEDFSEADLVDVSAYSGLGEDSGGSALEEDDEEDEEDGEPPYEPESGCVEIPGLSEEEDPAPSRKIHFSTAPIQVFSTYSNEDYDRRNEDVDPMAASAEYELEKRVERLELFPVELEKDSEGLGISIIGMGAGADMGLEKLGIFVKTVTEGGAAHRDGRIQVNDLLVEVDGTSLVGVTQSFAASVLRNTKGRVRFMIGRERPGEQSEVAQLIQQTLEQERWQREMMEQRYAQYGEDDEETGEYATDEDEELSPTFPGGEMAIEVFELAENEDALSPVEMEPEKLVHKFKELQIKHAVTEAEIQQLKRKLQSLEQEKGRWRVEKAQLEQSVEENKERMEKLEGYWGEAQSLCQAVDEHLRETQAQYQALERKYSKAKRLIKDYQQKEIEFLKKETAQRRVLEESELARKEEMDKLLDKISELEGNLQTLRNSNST
UniProt P43274: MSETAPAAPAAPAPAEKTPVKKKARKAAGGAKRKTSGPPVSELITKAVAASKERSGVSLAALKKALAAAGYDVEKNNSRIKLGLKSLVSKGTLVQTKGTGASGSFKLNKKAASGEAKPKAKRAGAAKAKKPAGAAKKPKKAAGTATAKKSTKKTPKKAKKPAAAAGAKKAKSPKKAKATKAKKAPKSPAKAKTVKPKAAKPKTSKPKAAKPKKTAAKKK
UniProt P18760: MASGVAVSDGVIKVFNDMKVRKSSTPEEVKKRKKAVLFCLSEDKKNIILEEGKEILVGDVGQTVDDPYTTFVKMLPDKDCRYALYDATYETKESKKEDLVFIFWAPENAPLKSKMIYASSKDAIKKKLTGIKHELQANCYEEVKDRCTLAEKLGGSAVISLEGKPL
UniProt P26039: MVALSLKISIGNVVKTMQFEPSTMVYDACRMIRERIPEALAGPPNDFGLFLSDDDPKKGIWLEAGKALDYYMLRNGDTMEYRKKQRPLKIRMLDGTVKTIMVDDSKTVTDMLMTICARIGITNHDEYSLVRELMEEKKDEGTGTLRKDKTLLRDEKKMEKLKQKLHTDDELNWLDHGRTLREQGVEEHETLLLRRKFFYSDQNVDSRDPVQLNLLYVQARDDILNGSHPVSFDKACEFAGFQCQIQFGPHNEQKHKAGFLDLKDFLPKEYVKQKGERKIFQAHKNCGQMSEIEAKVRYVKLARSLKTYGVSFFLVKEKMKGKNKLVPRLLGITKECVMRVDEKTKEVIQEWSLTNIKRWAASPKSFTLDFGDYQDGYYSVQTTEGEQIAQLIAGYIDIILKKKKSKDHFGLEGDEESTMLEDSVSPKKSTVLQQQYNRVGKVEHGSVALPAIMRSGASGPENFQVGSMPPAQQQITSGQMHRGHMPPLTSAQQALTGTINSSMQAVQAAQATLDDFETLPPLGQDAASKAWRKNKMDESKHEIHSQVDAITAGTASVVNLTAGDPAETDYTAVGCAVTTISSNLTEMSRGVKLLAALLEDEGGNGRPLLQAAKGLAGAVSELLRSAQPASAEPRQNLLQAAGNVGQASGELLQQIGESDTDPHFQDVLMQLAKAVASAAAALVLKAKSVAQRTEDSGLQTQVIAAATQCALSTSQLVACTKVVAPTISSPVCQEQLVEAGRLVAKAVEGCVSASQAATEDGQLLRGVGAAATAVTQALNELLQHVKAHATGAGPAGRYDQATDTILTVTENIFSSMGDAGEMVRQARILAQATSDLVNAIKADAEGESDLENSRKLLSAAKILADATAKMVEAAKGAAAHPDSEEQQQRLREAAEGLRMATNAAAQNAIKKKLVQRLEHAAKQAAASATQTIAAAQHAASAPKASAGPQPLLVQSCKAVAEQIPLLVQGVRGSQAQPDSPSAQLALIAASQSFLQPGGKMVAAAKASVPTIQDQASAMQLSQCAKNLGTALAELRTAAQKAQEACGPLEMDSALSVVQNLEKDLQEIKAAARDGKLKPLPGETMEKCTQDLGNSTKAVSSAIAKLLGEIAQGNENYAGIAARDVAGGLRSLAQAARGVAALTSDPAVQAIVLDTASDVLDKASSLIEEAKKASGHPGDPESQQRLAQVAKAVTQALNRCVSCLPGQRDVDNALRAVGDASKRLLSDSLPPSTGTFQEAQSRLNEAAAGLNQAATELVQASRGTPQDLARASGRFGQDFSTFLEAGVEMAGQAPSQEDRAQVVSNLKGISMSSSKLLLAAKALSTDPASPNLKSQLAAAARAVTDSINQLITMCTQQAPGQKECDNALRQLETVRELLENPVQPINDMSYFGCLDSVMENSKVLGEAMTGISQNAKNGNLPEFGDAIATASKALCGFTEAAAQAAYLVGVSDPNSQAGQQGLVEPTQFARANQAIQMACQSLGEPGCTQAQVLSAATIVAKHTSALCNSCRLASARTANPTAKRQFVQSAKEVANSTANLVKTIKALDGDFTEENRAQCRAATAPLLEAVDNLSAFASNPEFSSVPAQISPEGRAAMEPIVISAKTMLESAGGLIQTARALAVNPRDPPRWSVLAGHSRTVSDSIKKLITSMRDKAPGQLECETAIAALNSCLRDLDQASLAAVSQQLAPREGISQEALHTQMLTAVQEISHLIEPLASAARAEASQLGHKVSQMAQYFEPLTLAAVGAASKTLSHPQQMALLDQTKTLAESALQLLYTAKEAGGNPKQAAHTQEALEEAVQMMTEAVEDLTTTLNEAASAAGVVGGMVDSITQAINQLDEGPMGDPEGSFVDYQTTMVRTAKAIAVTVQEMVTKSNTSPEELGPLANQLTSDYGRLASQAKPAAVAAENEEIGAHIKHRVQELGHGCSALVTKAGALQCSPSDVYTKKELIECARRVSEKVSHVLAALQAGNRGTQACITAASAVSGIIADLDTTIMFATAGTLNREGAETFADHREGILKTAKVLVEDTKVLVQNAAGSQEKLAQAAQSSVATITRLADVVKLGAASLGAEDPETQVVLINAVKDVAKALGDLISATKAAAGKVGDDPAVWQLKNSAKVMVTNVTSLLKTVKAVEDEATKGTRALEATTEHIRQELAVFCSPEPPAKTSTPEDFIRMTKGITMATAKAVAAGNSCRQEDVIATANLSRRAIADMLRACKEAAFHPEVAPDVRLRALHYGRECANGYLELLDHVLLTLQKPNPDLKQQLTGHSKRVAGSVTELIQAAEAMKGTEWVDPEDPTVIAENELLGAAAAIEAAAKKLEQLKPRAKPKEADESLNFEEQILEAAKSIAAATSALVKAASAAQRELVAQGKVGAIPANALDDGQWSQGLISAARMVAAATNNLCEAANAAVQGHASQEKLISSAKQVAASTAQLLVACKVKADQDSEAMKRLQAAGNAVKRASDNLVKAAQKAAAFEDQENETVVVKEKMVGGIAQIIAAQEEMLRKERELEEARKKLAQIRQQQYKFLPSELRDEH
UniProt Q60749: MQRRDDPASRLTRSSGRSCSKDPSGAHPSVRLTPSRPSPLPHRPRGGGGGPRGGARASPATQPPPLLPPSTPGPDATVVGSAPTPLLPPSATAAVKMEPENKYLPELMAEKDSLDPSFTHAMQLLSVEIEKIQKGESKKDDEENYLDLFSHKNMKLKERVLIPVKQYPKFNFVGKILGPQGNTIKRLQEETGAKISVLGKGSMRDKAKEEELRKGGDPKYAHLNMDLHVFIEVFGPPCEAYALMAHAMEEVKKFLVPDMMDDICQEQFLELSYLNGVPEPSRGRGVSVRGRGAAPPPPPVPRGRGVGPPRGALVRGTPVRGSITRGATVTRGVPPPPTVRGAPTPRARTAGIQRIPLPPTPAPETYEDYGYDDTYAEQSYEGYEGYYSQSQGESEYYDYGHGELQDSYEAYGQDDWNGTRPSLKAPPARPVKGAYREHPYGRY
UniProt Q62261: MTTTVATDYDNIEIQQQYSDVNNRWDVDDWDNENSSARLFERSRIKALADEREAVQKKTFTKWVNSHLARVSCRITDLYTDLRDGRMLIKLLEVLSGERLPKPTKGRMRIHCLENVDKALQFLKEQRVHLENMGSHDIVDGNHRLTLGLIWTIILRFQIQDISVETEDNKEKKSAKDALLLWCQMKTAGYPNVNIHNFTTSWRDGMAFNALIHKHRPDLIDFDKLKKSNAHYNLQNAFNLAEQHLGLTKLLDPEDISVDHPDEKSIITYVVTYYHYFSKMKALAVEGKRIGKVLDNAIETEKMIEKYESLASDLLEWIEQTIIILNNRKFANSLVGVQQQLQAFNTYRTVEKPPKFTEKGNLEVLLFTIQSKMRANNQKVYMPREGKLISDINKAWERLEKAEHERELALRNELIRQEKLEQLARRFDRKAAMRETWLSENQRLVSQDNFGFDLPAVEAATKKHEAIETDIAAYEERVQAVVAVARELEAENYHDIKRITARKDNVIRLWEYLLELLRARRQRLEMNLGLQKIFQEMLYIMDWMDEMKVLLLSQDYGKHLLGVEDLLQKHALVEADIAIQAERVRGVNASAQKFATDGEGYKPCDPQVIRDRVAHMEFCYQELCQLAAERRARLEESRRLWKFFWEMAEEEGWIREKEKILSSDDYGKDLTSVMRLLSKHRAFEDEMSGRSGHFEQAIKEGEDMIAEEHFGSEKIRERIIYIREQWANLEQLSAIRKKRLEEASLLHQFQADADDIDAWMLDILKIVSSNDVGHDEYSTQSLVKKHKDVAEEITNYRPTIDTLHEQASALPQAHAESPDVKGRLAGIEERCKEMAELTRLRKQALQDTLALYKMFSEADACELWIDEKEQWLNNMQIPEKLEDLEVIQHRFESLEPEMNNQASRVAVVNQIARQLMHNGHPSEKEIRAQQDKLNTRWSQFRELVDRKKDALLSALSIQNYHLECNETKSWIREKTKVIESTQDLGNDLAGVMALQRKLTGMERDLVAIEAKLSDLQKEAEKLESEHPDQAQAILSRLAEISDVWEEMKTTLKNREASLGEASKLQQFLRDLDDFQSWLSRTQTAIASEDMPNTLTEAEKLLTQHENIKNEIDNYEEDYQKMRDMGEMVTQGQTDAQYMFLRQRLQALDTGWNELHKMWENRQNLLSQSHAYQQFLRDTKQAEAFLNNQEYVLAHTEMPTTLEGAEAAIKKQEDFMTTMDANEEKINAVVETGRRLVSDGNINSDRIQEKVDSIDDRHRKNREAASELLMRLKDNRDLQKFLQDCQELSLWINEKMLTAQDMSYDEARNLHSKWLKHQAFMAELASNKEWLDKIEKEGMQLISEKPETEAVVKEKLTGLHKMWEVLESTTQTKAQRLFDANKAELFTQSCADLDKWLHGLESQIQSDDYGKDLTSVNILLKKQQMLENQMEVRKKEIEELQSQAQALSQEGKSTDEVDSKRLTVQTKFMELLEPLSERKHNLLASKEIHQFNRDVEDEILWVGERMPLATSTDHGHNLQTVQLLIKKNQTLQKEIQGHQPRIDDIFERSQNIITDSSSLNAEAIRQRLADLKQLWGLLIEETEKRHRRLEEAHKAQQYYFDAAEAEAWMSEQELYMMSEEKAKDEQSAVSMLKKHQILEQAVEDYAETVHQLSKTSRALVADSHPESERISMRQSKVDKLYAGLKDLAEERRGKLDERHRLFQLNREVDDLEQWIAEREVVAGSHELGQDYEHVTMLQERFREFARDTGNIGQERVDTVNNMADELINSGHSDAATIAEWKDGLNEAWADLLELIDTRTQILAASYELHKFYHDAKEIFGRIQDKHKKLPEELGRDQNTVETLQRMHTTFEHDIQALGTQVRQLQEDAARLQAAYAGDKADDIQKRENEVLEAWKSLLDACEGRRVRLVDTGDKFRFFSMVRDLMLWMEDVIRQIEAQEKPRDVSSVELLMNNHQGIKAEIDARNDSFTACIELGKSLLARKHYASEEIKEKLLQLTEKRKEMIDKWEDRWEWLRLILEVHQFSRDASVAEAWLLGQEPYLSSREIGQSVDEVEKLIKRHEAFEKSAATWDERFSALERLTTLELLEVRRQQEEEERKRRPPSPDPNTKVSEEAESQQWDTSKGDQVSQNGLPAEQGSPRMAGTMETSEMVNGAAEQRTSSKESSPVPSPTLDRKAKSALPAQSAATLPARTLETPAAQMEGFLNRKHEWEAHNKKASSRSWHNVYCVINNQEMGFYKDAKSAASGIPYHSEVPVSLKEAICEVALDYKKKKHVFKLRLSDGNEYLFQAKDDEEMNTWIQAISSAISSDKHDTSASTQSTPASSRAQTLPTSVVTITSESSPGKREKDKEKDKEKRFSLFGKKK

These substances were tested against Spinophilin (mouse (endogenous in pancreas and isolated islets)) (UniProt Q6R891) (assay: affinity purification with mass spectrometry; spinophilin immunoprecipitated from islets isolated from three WT and one Spino^-/- mice; label-free, spectral counting).

| Substance | binding |
| --- | --- |
| Col1a2 (from UniProt Q01149 86-1125) | binds |
| Hnrnpu (from UniProt Q8VEK3 1-800) | binds |
| Rpl14 (from UniProt Q9CR57 1-217) | binds |
| H1-4 (from UniProt P43274 1-219) | binds |
| α-Actinin 1a (from UniProt Q7TPR4 1-892) | binds |
| Anxa2 (from UniProt P07356 1-339) | binds |

Next, values leading:

| binding | Substance |
| --- | --- |
| binds | Hnrnpk (from UniProt P61979 1-463) |
| binds | Hnrnpa2b1 (from UniProt O88569 1-353) |
| binds | protein disulfide isomerase (PDI) (from UniProt P09103 20-509) |
| binds | Cfl1 (from UniProt P18760 1-166) |
| binds | Tns1 (from UniProt E9Q0S6 1-1888) |
| binds | EG433182 (from UniProt Q5FW97 1-434) |
| binds | Flnb (from UniProt Q80X90 1-2602) |

Each substance was assayed against Spinophilin (mouse (endogenous in pancreas and isolated islets)) (UniProt Q6R891) (assay: affinity purification with mass spectrometry; spinophilin immunoprecipitated from pancreas of WT chow-fed, WT high-fat diet-fed and Spino^-/- high-fat diet-fed male mice; on-bead digestion, TMT10plex; hits filtered by WT/KO log2 fold-enrichment of 0.5 and two unique peptides, listed hits increased in HFF vs. lean).

| Substance | binding |
| --- | --- |
| Capping protein (Actin filament) muscle Z-line, β, isoform CRA_a (from UniProt P47757 1-277) | binds |
| 60S ribosomal protein L22-like 1 (from UniProt Q9D7S7 1-122) | binds |
| Tropomyosin α-3 chain (from UniProt P21107 1-285) | binds |
| F-actin-capping protein subunit α-2 (from UniProt P47754 1-286) | binds |
| Collagen α-1 (VI) chain (from UniProt Q04857 20-1025) | binds |
| Tropomyosin β chain (from UniProt P58774 1-284) | binds |
| Unconventional myosin-XVIIIa (from UniProt Q9JMH9 1-2050) | binds |
| MCG15083 (from UniProt Q9QUK9) | binds |
| Gelsolin (from UniProt P13020 26-780) | binds |
| α-Actinin-4 (from UniProt P57780 1-912) | binds |
| α-Actinin 1a (from UniProt Q7TPR4 1-892) | binds |
| Tropomyosin α-1 chain (from UniProt P58771 1-284) | binds |
| Deleted in malignant brain tumors 1 protein (from UniProt Q60997 20-2085) | binds |
| Talin-1 (from UniProt P26039 1-2541) | binds |
| Spectrin α chain, nonerythrocytic 1 (from UniProt P16546 1-2472) | binds |
| Colipase (from UniProt Q9CQC2) | binds |
| Chymotrypsinogen B (from UniProt Q9CR35 19-263) | binds |

Second part, the substance after the results:

| binding | Substance |
| --- | --- |
| binds | KH domain-containing, RNA-binding, signal transduction-associated protein 1 (from UniProt Q60749 1-443) |
| binds | Spectrin β chain, nonerythrocytic 1 (from UniProt Q62261 1-2363) |
| binds | Unconventional myosin-lc (from UniProt Q9WTI7 1-1063) |
| binds | 60S acidic ribosomal protein P2 (from UniProt P99027 1-115) |
| binds | Carboxypeptidase A2 (from UniProt Q504N0) |
| binds | Anionic trypsin-2 (from UniProt P07146) |
| binds | ADP-ribosylation factor GTPase-activating protein 3 (from UniProt Q9D8S3 1-523) |
| binds | Myosin-14 (from UniProt Q6URW6 1-2000) |
| binds | Casein kinase II subunit β (from UniProt P67871 1-215) |
| binds | Myosin phosphatase Rho-interacting protein (from UniProt P97434 1-1024) |

Each substance was assayed against Spinophilin (mouse (endogenous in pancreas and isolated islets)) (UniProt Q6R891) (assay: affinity purification with mass spectrometry; spinophilin immunoprecipitated with goat or rabbit anti-spinophilin antibody and Protein G magnetic beads from RIPA pancreas homogenate of a single 6-wk-old WT and Lepr^db/db mouse; SDS-PAGE, in-gel tryptic digestion, Q-Exactive, spectral counts).

| binding | Substance |
| --- | --- |
| binds | protein disulfide isomerase (PDI) (from UniProt P09103 20-509) |
| binds | Neurabin-1 (from UniProt H3BJD6 1-1292) |

Results are given in words; binding and its absence hold for the method and conditions named. In cells and extracts the contact can be indirect. Here binding means that the protein was enriched with, or labelled near, the bait; the list need not be complete.
